Experimental data published in PMC8384837.
Residue numbers refer to the chain shown, from its start. Some of the results follow. For part of these data: At the low end of the ranking, values are background and their order means little. For part of these data: Construct or isoform of the protein are uncertain.

Assays:
Conditions in all cases: yeast three-hybrid, YBZ-1, SC-Leu-His + 0.5 mM 3-AT, 4 days
[1] = target: T1, PUM1 PUF domain R1-QFR R2-VFQ R7-NPG S863Q + R864F + Q867R + N899V + Y900F + S1079N + N1080P + E1083G (UniProt Q14671)
T1 sequence: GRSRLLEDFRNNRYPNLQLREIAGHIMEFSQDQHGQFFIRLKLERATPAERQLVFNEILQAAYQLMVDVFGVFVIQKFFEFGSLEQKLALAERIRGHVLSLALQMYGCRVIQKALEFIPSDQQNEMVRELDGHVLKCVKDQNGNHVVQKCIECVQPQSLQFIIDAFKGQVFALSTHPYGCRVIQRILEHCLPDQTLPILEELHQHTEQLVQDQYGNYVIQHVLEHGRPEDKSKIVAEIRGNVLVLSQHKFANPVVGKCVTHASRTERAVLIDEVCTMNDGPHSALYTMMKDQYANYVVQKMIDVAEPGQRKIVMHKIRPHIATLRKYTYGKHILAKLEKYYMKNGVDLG

[2] = target: T2, PUM1 PUF domain R3-THE R4-TFR C935T + R936H + Q939E + N971T + H972F + Q975R (UniProt Q14671)
T2 sequence: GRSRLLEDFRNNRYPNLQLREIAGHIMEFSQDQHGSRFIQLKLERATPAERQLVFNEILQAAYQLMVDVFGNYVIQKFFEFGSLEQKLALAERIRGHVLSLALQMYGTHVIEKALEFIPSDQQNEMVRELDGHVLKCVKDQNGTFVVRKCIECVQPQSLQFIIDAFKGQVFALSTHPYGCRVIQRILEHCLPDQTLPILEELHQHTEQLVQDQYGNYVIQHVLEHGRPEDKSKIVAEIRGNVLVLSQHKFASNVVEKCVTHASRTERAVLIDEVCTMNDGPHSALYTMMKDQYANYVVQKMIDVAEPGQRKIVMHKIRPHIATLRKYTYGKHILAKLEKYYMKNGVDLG

[3] = target: T3, PUM1 PUF domain R3-THE R4-TFR R7-NPG C935T + R936H + Q939E + N971T + H972F + Q975R + S1079N + N1080P + E1083G (UniProt Q14671)
T3 sequence: T2 sequence with S252N, N253P, E256G

[4] = target: T4, PUM1 PUF domain R5-PHQ R6-SWD C1007P + R1008H + N1043S + Y1044W + Q1047D (UniProt Q14671)
T4 sequence: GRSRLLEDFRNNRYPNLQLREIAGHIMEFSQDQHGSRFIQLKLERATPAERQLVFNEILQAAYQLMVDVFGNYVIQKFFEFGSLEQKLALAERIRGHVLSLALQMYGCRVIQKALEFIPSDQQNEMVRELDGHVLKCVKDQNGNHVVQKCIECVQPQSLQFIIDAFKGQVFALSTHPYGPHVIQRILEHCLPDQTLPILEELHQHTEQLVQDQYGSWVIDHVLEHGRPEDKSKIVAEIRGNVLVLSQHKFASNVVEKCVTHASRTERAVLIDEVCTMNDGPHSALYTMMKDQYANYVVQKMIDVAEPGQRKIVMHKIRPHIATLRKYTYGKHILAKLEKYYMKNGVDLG

[5] = target: T5, PUM1 PUF domain R3-THE R4-TFR R7-NPG C935T + R936H + Q939E + N971T + H972F + Q975R + S1079N + N1080P + E1083G (Homo sapiens) (UniProt Q14671)
T5 sequence: T2 sequence with S252N, N253P, E256G

[6] = target: T6, PUM1 PUF domain R6-SWD R7-NPG N1043S + Y1044W + Q1047D + S1079N + N1080P + E1083G (Homo sapiens) (UniProt Q14671)
T6 sequence: T4 sequence with P180C, H181R, S252N, N253P, E256G

Sequence | binding signal (log2 enrichment (interaction score)) [1] | binding signal (log2 enrichment (interaction score)) [2] | binding signal (log2 enrichment (interaction score)) [3] | binding signal (log2 enrichment (interaction score)) [4] | binding signal (log2 enrichment (interaction score)) [5] | binding signal (log2 enrichment (interaction score)) [6]
GGCUAGAACUAGUGGAUCCCCCGGCGCCCGGCGGCUCGAGCCCGGGUAAGUGCAAGUCGUCUGCAUGCCGCCGGGCGCCAUGCCUGCAGGUCGACUCUAGAAAACAUG | -5.44 | -7.64 | < -2.32 | -6.92 |  | 
GGCUAGAACUAGUGGAUCCCCCGGCGCCCGGCGGCUCGAGCCCGGGUAAGGUAAAGUCGUCUGCAUGCCGCCGGGCGCCAUGCCUGCAGGUCGACUCUAGAAAACAUG | -6.23 | -6.18 |  |  | -1.84 | 
GGCUAGAACUAGUGGAUCCCCCGGCGCCCGGCGGCUCGAGCCCGGGUAAGUUGAGGUUGUCUGCAUGCCGCCGGGCGCCAUGCCUGCAGGUCGACUCUAGAAAACAUG | -5.27 | -8.58 | -2.52 | -8.4 |  | -0.92
GGCUAGAACUAGUGGAUCCCCCGGCGCCCGGCGGCUCGAGCCCGGGUAAGUUGACUCAGUCUGCAUGCCGCCGGGCGCCAUGCCUGCAGGUCGACUCUAGAAAACAUG | -3.79 | -7.96 |  | -7.45 |  | 
GGCUAGAACUAGUGGAUCCCCCGGCGCCCGGCGGCUCGAGCCCGGGUAAGUUUUCGUCGUCUGCAUGCCGCCGGGCGCCAUGCCUGCAGGUCGACUCUAGAAAACAUG | < -6.17 | -7.51 | -3.53 |  |  | 
GGCUAGAACUAGUGGAUCCCCCGGCGCCCGGCGGCUCGAGCCCGGGUAAGUAUACGUCGUCUGCAUGCCGCCGGGCGCCAUGCCUGCAGGUCGACUCUAGAAAACAUG | -4.54 | -6.09 |  |  |  | 
GGCUAGAACUAGUGGAUCCCCCGGCGCCCGGCGGCUCGAGCCCGGGUAAGUCGACGAAGUCUGCAUGCCGCCGGGCGCCAUGCCUGCAGGUCGACUCUAGAAAACAUG | -4.37 | -7.78 |  | < -8.39 |  | 
GGCUAGAACUAGUGGAUCCCCCGGCGCCCGGCGGCUCGAGCCCGGGUAAGUCAAGUUCGUCUGCAUGCCGCCGGGCGCCAUGCCUGCAGGUCGACUCUAGAAAACAUG | -5.54 | -6.83 |  |  | -1.3 | -1.03
GGCUAGAACUAGUGGAUCCCCCGGCGCCCGGCGGCUCGAGCCCGGGUAAGUUUCAGUAGUCUGCAUGCCGCCGGGCGCCAUGCCUGCAGGUCGACUCUAGAAAACAUG | -3.58 | -6.12 |  | < -7.41 |  | 
GGCUAGAACUAGUGGAUCCCCCGGCGCCCGGCGGCUCGAGCCCGGGUAAGUGAACGAAGUCUGCAUGCCGCCGGGCGCCAUGCCUGCAGGUCGACUCUAGAAAACAUG | -5.93 | -7.46 |  |  | < -1.96 | -1.43
GGCUAGAACUAGUGGAUCCCCCGGCGCCCGGCGGCUCGAGCCCGGGUAAGUCAACGUAGUCUGCAUGCCGCCGGGCGCCAUGCCUGCAGGUCGACUCUAGAAAACAUG | -5.64 | -5.7 | -2.86 | -7.19 |  | -0.29
GGCUAGAACUAGUGGAUCCCCCGGCGCCCGGCGGCUCGAGCCCGGGUAAGAGUAAGUCGUCUGCAUGCCGCCGGGCGCCAUGCCUGCAGGUCGACUCUAGAAAACAUG | -6.35 | -6.77 |  | -7.67 |  | 
GGCUAGAACUAGUGGAUCCCCCGGCGCCCGGCGGCUCGAGCCCGGGUAAGUGUAAGAAGUCUGCAUGCCGCCGGGCGCCAUGCCUGCAGGUCGACUCUAGAAAACAUG | -6.35 | -8.4 | -2.9 | < -8.34 |  | -0.47
GGCUAGAACUAGUGGAUCCCCCGGCGCCCGGCGGCUCGAGCCCGGGUAAGAUUCUGUGGUCUGCAUGCCGCCGGGCGCCAUGCCUGCAGGUCGACUCUAGAAAACAUG | -4.84 | -6.46 |  |  | -1.29 | 
GGCUAGAACUAGUGGAUCCCCCGGCGCCCGGCGGCUCGAGCCCGGGUAAGUUUAUGAUGUCUGCAUGCCGCCGGGCGCCAUGCCUGCAGGUCGACUCUAGAAAACAUG | < -5.58 | -7.35 |  |  | < -0.63 | 
GGCUAGAACUAGUGGAUCCCCCGGCGCCCGGCGGCUCGAGCCCGGGUAAGUUUCCAUAGUCUGCAUGCCGCCGGGCGCCAUGCCUGCAGGUCGACUCUAGAAAACAUG | -5.25 | -6.56 | -2.45 | -7.14 |  | 

Complete entries as entered above:
GGCUAGAACUAGUGGAUCCCCCGGCGCCCGGCGGCUCGAGCCCGGGUAAGAUUCUGUGGUCUGCAUGCCGCCGGGCGCCAUGCCUGCAGGUCGACUCUAGAAAACAUG as listed: binding signal (log2 enrichment (interaction score)) [1] = -4.84; binding signal (log2 enrichment (interaction score)) [2] = -6.46; binding signal (log2 enrichment (interaction score)) [5] = -1.29
GGCUAGAACUAGUGGAUCCCCCGGCGCCCGGCGGCUCGAGCCCGGGUAAGUUUCCAUAGUCUGCAUGCCGCCGGGCGCCAUGCCUGCAGGUCGACUCUAGAAAACAUG as listed: binding signal (log2 enrichment (interaction score)) [1] = -5.25; binding signal (log2 enrichment (interaction score)) [2] = -6.56; binding signal (log2 enrichment (interaction score)) [3] = -2.45; binding signal (log2 enrichment (interaction score)) [4] = -7.14
